# Patent US7432245B2, “Pharmaceutical formulation comprising a peptide angiogenesis inhibitor” (Abbott Laboratories Inc., priority 2002, dated 2008)
# Counter-ions that a name gives are not always drawn. At least one read-out could not be matched to a standard name with certainty. Where a SMILES comes first, the peptide text is derived from it. [ ]: non-standard residue; d: D form. Nva = CCC[C@H](N)C(=O)O; Sar = CNCC(=O)O
# Assay: Potency determination: recovery of peptide from PLG gel by HPLC
# Assay type: physicochemical
# Conditions: gel dissolved in aqueous acetonitrile, polymer filtered off
smiles,measurement,value
"CCC[C@H](NC(=O)[C@@H](NC(=O)[C@H](NC(=O)[C@@H](NC(=O)CNC(=O)CN(C)C(C)=O)C(C)C)[C@H](C)CC)[C@@H](C)O)C(=O)N[C@H](C(=O)N[C@@H](CCCNC(=N)N)C(=O)N1CCC[C@H]1C(=O)NCC)[C@@H](C)CC [acetate salt of formula (Ia), N-Ac-Sar-Gly-Val-DIle-Thr-Nva-Ile-Arg-ProNHCH2CH3] (Ac-[Sar]GV[dI]T[Nva]IRP-NHEt)",recovery of the acetate salt from the PLG gel,completely recovered
